Data from article doi:10.1101/2021.12.22.473890.
Results are given in words; binding and its absence hold for the method and conditions named. Binding seen in cells or lysates may run through a third protein. Some entries that bind do so weakly or less than the wild type.

Sequences of proteins named here, by UniProt entry; tags and fusion partners are left off.
UniProt P52819: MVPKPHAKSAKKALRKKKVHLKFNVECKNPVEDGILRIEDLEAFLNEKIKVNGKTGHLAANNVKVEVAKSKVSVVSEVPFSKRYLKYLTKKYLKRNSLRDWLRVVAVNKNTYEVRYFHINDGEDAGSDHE

Experiments:
[1] = biological target: N-terminal 3xFLAG tagged RPL-22 expressed from the endogenous rpl-22 locus, allele rpl-22(wbm58) (C. elegans) (UniProt P52819); experiment: co-IP
[2] = biological target: N-terminal 3xFLAG tagged RPL-22 expressed from tissue-specific single-copy SKI TRIP cassettes (rpl-22 cDNA) (C. elegans) (UniProt P52819); experiment: co-IP

binding [1]: binds | binding [2]: binds
B1: RPS-6, a protein of the small ribosomal subunit (protein, UniProt Q9NEN6 1-246)
chain: MRLNFAYPATGLQKSFEVDEEKKLRLFFEKRMSQEVAIDALGDEWKGYVVRIGGGNDKQGFPMKQGILTNGRVRLLLKKGQSCYRERKNGERKRKSVRGCIVDANMSALSLVIVKKGDGEIEGLTDSVLPRKLGPKRASKIRKLFNLTKHDDVTKYVITHDKTFPDGVTKTIAPKIQRLITPARIARKKYLLRQKRNQKIKMRDDAAAYHKLLAKYSKEEHDAKIARRRSSASHHSESEVKKTSKK
